The supplement of paper PMC3334620
In all, about 33,000 sequences were measured (“E-score (-0.5 to 0.5)”: median about -8e-05, highest 2% from about 0.23 on). Some of the results follow.

Each sequence was assayed against T1, Nrg2 (UniProt P38082) (assay: PBM E-score (8-mer binding enrichment) (E-score (-0.5 to 0.5)); higher = stronger / more preferred TF binding). Conditions: protein concentration: 100 nM; construct: GST-full length.
T1 sequence: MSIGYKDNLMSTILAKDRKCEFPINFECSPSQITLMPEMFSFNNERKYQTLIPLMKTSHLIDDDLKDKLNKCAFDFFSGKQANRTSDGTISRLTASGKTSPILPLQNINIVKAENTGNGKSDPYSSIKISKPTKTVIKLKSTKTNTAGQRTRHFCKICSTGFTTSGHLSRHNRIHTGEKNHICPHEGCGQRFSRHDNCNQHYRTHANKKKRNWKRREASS
Method in brief: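 Universal all-10-mer Agilent arrays, fresh or stripped once, were converted to double-stranded form by primer extension. GST-tagged yeast transcription factors from PURExpress in vitro transcription/translation, full-length or DNA-binding domain only, were applied at about 100-200 nM and detected with fluorescent anti-GST. After masliner normalisation, the Universal PBM Analysis Suite scored each ungapped eight-base word together with its reverse complement by E-score.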

Row | Sequence | PBM E-score
1 | CGCCGGGA | -0.199
2 | GCGCTCCC | 0.00196
3 | ATGTTTGA | 0.0145
4 | TCCTGGCA | 0.00481
5 | ATGCTGTG | -0.0153
6 | ATAACGTA | 0.179
7 | GCGGAATA | 0.0652
8 | GCATGAAC | 0.0623
9 | CGGCGTTC | -0.183
10 | CCCGACGA | -0.00655
11 | CCTAGTAG | -0.228
12 | ATTGATAA | 0.0942
13 | CCTGGTAA | 0.012
14 | CAGATGGG | -0.0267
15 | ACCATCGT | -0.156
16 | GTCCCGGA | -0.0658
17 | ACCGAATA | 0.0469
18 | CAAGACGG | -0.00028
19 | GAGTTTTA | -0.0534
20 | AGCACAAA | 0.128
21 | CACCATGC | -0.0346
22 | TCTCGGCA | -0.0303
23 | CCCCTTAA | 0.0754
24 | ACACATAA | 0.0893
25 | GCACGCAC | -0.138

Row | Sequence | PBM E-score
26 | TCACGCGA | 0.0588
27 | AACGGGAG | 0.0507
28 | AAGCTGCT | 0.0396
29 | TAGACGGA | 0.0948
30 | GCGGGACC | 0.00581
31 | GAGCTTTA | -0.0717
32 | ACCTCACT | -0.0963
33 | CCTCGAGA | 0.156
34 | ACACGTAG | -0.128
35 | GTGGCTTA | -0.223
36 | CGGTAGGC | -0.192
37 | CTTCCAAC | -0.0441
38 | GAGGCTTA | -0.134
39 | CGCAGTCC | -0.095
40 | CGTAGCAA | 0.0661
41 | AGTGTACA | 0.00361
42 | AGGGGAGA | -0.165
43 | TTTTAAAA | -0.0578
44 | TATAGTAA | 0.207
45 | CCCCCCTC | -0.399
46 | TAGTACGA | 0.0756
47 | AAGCGCAT | 0.0701
48 | CGAGTCGC | -0.17
49 | GACAACAC | 0.0444
50 | ACCAATTA | 0.221

Row | Sequence | PBM E-score
51 | ACACTACA | 0.108
52 | CGTGACGA | 0.0379
53 | TCCCGCAA | 0.198
54 | GATCACGC | 0.197
55 | GGAGTTGA | 0.0463
56 | ACGGAGGC | -0.212
57 | CCAGTAGG | -0.166
58 | ACGAATAG | 0.0297
59 | CTCCTAGC | -0.17
60 | TATTACCA | 0.0363
61 | ACTCTCCG | 0.0617
62 | ACCCACTG | 0.0679
63 | CAGTACCC | -0.0238
64 | ACCTAAAA | 0.00925
65 | GGCGTTCA | -0.0558
66 | CGCATACA | 0.121
67 | TATACAGA | 0.137
68 | GCGGTAGA | -0.0506
69 | ACTCTTAT | 0.155
70 | CATCGCAC | -0.0129
71 | CGCGTCTC | 0.0446
72 | TCAGGACA | 0.0731
73 | GACCGTTA | -0.117
74 | AATGAAAT | 0.173
75 | AACTCGGT | -0.00163

Row | Sequence | PBM E-score
76 | AACATTGT | 0.119
77 | AGTATCCC | 0.118
78 | AAAAAGAA | 0.137
79 | GCTCTACC | -0.329
80 | TCTCTGAA | -0.14
81 | ATAGAATC | -0.0242
82 | AATTACGG | 0.0369
83 | ACATGATG | -0.184
84 | GTTTTTAA | 0.0561
85 | AACCCATA | 0.24
86 | ATCGCCGG | 0.00351
87 | ACCGTCGG | -0.165
88 | AGTGACTG | -0.0772
89 | AGCTCAAC | 0.031
90 | ACCCCTCG | 0.0338
91 | GCTCCACC | -0.211
92 | CAGTTATC | -0.233
93 | AGTGCTGC | -0.0775
94 | CTATGAGA | -0.103
95 | CAGGTTAA | -0.0788
96 | AAACTCTA | -0.126
97 | AAAATCTA | -0.133
98 | AGCTACAA | 0.0651
99 | ATGATGGC | -0.0437
100 | ACGAGAGA | -0.0519

Row | Sequence | PBM E-score
101 | AAATCACA | -0.0167
102 | ATTCAGTC | 0.03
103 | AAAATAGA | 0.118
104 | CGATCCCC | -0.116
105 | AGCGGCCA | -0.223
106 | CCCGTGCC | -0.14
107 | GATGCTAC | 0.0389
108 | GAGACTCC | -0.134
109 | CAAAAGTG | 0.0547
110 | CGCTGTCC | 0.0681
111 | AGGAGAGA | -0.188
112 | GTCAAGTA | -0.192
113 | CGAAAGTC | -0.0766
114 | AGTAAAAG | 0.154
115 | GTCCACTA | 0.16
116 | CACTGCGC | 0.0523
117 | AAAGAGTG | -0.191
118 | AACCCAGG | 0.0903
119 | ATTGCGAA | -0.0318
120 | AGTCGGTA | -0.254
121 | ACTCTACC | 0.0105
122 | ATCATGCC | 0.0753
123 | TGGAAGAA | 0.0785
124 | GGTGGTAA | 0.109
125 | ATAATTAG | 0.228

Row | Sequence | PBM E-score
126 | AAAGCGTC | -0.117
127 | TCCCATCA | -0.125
128 | ACCATGTG | -0.0267
129 | GTACAAAC | 0.127
130 | GCGTGGAA | -0.0158
131 | TATGGTAA | 0.179
132 | GGCATGTA | 0.00412
133 | CCAGACCG | 0.116
134 | GTAAGAAA | 0.0855
135 | CATCCACC | -0.00806
136 | AGCCTCGC | -0.149
137 | AGCATTGG | -0.154
138 | AACGAGTC | -0.0567
139 | ATTAGTGA | 0.114
140 | GTGAGTCA | -0.0285
141 | CATAACCA | -0.0432
142 | AGCCCGGC | -0.168
143 | CCCACAGC | -0.129
144 | AAAGTACT | -0.034
145 | CCGAAGAA | 0.0175
146 | ACGAACCC | -0.00702
147 | TATACTCA | 0.094
148 | GCTCCTCA | -0.328
149 | ATAATTTC | 0.118
150 | AGTCAGTA | 0.00919

A few values from the list:
CCCACAGC – PBM E-score: -0.129
GTGAGTCA – PBM E-score: -0.0285
ACCATGTG – PBM E-score: -0.0267
ATAATTTC – PBM E-score: 0.118
ACGAACCC – PBM E-score: -0.00702
CATAACCA – PBM E-score: -0.0432
CCAGACCG – PBM E-score: 0.116

Further entries follow:

Row | Sequence | PBM E-score
151 | ATCCTATC | -0.044
152 | GTGAGACA | 0.0224
153 | GCCAAACC | -0.0932
154 | AGTCCTTC | -0.281
155 | ATAGGAAA | 0.14
156 | CCCATCCA | 0.124
157 | CGATGCCG | -0.161
158 | CGAGCGGC | 0.0741
159 | CAAAGCAA | 0.265
160 | ACTCAACC | 0.168
161 | GCCGGCCA | 0.143
162 | ACCCCAAT | 0.0778
163 | AATTCCGG | 0.0827
164 | GAGCTAAC | -0.0676
165 | AGTCAGTC | -0.127
166 | ACCGCATA | 0.0956
167 | CCGGCGTC | -0.0857
168 | AGTTGACA | 0.0871
169 | CAATATAC | -0.0092
170 | CTCGCGTC | 0.117
171 | ACACCGAT | -0.0875
172 | ACAGACAC | -0.0421

Rewritten in markdown: entries from further up.

| Row | Sequence | PBM E-score |
| --- | --- | --- |
| 165 | AGTCAGTC | -0.127 |
| 166 | ACCGCATA | 0.0956 |
